Results on two substances are retold here after paper PMC4935888.

No constants are given. Whether binding was seen depends on the method and setting. Binding seen in cells or lysates may run through a third protein. Binding calls can cover weak binding; strength is not graded here. Where a sequence is shown, tags or fusion partners need not be part of it.

This test deals with T1, recombinant viral envelope protein rVP28 with a GST tag (White spot syndrome virus) (UniProt Q9ICB7).
T1 sequence: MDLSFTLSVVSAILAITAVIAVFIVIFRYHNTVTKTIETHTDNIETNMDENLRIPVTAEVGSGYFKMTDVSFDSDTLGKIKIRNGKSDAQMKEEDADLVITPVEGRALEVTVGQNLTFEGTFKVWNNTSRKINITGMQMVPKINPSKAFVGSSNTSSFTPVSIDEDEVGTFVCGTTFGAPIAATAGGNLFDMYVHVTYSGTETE
The test can be described thus: pull-down; Hpt cell lysate pulled down with rVP28, GST as control; anti-β-tubulin or anti-β-actin immunoblot; only the target purified. (In general: A western blot detects proteins with antibodies after separation by electrophoresis.)

As to Cq-β-actin, the binding entry is given as “binds”.
With Cq-β-tubulin the entry was “binds”.
